We go through 1 substance from paper doi:10.1101/2025.10.13.682238.

Sequences of proteins named here, by UniProt entry; tags and fusion partners are left off.
UniProt P0A6F5: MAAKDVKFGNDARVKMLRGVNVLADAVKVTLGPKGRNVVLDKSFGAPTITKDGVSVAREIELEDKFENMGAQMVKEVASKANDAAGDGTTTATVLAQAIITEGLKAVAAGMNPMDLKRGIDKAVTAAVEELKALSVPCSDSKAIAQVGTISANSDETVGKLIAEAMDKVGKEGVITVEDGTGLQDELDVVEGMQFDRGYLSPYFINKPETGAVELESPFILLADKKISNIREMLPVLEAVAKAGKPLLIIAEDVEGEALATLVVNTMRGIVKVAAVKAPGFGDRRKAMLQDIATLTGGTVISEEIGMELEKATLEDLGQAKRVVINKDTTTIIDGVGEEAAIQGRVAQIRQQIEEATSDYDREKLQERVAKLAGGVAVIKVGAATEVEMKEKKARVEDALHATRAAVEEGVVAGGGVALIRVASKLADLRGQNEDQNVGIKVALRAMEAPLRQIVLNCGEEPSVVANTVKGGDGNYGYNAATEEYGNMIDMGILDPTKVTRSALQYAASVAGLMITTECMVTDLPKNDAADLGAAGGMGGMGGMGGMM

These are yes or no findings as the source states them, for the method shown. In cells and extracts the contact can be indirect. These calls come from enrichment with a bait or labelling near it, and not all partners need be listed. Sequences can lack the tags named with a protein.

This assay concerns the target T1, GST-∆N-ATAD2B, res 380–1458 (human ATPase family AAA+ domain-containing protein 2B), expressed in E. coli (human) (UniProt Q9ULI0).
T1 sequence: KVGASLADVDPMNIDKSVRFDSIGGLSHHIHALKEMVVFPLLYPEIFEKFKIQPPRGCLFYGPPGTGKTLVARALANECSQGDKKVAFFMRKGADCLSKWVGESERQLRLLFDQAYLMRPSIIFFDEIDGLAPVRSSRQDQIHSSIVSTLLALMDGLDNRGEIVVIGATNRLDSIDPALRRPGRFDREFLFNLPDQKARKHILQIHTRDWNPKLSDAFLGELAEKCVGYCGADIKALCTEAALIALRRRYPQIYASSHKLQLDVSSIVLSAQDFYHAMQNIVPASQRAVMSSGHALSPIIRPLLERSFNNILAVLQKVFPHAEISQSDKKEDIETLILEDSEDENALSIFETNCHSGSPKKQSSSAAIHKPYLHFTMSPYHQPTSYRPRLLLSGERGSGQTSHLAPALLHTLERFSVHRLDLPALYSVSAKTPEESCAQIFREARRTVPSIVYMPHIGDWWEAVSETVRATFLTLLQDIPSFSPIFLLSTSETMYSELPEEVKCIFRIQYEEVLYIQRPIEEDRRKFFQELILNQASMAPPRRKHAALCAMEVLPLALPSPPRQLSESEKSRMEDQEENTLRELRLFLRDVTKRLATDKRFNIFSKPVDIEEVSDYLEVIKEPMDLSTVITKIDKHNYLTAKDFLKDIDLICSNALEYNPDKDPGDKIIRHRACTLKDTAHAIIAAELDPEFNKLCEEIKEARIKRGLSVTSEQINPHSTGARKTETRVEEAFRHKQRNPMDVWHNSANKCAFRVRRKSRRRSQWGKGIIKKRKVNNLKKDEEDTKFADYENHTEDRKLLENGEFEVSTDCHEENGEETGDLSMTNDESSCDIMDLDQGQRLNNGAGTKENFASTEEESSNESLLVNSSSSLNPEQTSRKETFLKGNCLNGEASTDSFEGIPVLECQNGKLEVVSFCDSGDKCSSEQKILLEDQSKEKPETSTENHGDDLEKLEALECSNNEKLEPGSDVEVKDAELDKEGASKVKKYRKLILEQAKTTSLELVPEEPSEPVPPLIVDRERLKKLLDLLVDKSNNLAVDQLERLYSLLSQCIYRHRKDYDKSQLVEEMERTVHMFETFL
The assay is described as follows: affinity purification with mass spectrometry; GST-∆N-ATAD2B purified from E. coli by GST affinity and size exclusion chromatography; 58 kDa band on SDS-PAGE and liquid sample identified by mass spectrometry once E. coli proteins were included in the search; GroEL stayed after unfolded bacterial lysate with ATP was added.

Regarding “GroEL (E. coli chaperonin) (from UniProt P0A6F5 1-548)”, the binding entry is “binds”.
